# Reference: the supplement of paper PMC12067093, “Discovery and optimisation of a covalent ligand for TRIM25 and its application to targeted protein ubiquitination” (Chemical Science, 2025)
# By UniProt entry, the sequences of proteins in these tests, tags left out. Where a name states a change or a piece, a line headed by the entry shows the natural chain unless it says otherwise.
# UniProt P29597: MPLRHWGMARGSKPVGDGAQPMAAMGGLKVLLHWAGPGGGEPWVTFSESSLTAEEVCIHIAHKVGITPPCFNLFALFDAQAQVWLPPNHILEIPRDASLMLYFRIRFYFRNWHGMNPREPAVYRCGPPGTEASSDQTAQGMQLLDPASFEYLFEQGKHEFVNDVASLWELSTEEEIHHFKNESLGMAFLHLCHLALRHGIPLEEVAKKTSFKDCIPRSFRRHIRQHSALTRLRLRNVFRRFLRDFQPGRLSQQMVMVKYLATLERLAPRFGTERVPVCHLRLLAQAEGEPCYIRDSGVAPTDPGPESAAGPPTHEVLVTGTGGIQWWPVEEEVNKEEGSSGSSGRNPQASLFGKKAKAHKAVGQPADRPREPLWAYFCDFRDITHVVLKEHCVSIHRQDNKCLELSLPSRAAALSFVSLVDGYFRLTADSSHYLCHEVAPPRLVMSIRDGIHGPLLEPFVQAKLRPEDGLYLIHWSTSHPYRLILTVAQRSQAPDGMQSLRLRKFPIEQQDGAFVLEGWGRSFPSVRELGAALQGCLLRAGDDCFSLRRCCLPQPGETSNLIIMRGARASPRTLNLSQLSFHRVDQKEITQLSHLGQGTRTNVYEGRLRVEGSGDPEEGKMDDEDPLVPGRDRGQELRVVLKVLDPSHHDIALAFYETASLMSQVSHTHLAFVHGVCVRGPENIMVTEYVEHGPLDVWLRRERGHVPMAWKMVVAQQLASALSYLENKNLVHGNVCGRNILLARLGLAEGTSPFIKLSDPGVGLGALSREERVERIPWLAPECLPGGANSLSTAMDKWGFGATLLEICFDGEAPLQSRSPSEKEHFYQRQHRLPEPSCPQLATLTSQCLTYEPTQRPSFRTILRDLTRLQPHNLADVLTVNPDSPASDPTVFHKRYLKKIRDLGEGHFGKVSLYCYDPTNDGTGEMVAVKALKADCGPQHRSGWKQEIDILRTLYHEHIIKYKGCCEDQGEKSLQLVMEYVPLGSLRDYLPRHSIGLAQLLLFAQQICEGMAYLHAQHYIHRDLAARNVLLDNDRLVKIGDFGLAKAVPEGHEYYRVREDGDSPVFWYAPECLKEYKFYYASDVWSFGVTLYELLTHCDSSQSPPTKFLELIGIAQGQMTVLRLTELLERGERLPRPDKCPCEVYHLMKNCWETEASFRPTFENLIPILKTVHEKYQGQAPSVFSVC
# UniProt Q9H832: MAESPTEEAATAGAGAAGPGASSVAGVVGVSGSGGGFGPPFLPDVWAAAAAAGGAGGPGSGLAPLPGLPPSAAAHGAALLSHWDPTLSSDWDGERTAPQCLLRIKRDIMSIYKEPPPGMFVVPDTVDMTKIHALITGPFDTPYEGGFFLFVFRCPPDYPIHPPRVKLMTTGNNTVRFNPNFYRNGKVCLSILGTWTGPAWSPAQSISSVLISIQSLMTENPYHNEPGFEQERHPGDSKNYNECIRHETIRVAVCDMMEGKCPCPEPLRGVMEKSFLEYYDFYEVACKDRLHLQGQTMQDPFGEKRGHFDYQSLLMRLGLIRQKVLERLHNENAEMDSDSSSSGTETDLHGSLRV
# UniProt Q8IWV8: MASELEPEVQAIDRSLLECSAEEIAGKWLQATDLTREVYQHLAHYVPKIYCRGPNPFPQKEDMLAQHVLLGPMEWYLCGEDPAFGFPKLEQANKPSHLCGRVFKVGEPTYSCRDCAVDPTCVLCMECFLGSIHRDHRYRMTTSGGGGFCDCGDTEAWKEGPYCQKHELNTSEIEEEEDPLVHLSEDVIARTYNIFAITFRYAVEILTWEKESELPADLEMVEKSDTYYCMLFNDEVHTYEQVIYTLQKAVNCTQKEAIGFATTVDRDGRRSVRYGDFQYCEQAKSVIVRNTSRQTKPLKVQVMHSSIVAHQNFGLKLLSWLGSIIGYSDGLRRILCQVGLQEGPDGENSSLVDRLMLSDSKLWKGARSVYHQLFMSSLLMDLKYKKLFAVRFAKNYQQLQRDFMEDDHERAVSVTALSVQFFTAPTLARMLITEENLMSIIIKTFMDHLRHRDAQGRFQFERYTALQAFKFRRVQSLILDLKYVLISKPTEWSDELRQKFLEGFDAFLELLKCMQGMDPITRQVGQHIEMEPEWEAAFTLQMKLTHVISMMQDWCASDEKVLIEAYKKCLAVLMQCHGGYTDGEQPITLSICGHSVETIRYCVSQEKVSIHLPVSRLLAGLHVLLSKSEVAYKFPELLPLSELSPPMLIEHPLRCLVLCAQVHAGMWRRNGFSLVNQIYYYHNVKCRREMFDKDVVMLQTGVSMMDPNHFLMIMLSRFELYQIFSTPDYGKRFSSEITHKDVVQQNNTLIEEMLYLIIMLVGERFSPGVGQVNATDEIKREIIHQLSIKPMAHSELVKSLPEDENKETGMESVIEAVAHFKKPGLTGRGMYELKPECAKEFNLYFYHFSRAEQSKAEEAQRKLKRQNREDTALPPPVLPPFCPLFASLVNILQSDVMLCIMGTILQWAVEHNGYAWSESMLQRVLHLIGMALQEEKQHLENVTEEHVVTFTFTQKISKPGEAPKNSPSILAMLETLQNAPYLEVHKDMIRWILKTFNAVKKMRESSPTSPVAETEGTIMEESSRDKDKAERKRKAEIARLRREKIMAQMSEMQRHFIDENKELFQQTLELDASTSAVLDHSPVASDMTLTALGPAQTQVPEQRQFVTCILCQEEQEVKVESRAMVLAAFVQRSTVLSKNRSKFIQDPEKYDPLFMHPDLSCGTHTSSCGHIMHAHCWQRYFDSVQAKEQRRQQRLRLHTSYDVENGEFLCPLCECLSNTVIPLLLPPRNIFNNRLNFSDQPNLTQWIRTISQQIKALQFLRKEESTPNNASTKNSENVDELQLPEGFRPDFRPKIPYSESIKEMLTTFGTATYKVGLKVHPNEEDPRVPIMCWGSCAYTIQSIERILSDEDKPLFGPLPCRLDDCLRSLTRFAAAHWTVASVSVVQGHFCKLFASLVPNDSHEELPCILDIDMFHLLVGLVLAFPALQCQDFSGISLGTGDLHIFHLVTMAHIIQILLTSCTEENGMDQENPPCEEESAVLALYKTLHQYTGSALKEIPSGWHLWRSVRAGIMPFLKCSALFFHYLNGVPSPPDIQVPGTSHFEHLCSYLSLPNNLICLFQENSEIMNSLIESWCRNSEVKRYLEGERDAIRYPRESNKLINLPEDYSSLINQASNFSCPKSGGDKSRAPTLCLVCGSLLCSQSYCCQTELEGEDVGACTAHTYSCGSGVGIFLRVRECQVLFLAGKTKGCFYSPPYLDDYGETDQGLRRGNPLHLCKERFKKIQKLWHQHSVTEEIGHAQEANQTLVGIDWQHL
# UniProt Q6ZT12: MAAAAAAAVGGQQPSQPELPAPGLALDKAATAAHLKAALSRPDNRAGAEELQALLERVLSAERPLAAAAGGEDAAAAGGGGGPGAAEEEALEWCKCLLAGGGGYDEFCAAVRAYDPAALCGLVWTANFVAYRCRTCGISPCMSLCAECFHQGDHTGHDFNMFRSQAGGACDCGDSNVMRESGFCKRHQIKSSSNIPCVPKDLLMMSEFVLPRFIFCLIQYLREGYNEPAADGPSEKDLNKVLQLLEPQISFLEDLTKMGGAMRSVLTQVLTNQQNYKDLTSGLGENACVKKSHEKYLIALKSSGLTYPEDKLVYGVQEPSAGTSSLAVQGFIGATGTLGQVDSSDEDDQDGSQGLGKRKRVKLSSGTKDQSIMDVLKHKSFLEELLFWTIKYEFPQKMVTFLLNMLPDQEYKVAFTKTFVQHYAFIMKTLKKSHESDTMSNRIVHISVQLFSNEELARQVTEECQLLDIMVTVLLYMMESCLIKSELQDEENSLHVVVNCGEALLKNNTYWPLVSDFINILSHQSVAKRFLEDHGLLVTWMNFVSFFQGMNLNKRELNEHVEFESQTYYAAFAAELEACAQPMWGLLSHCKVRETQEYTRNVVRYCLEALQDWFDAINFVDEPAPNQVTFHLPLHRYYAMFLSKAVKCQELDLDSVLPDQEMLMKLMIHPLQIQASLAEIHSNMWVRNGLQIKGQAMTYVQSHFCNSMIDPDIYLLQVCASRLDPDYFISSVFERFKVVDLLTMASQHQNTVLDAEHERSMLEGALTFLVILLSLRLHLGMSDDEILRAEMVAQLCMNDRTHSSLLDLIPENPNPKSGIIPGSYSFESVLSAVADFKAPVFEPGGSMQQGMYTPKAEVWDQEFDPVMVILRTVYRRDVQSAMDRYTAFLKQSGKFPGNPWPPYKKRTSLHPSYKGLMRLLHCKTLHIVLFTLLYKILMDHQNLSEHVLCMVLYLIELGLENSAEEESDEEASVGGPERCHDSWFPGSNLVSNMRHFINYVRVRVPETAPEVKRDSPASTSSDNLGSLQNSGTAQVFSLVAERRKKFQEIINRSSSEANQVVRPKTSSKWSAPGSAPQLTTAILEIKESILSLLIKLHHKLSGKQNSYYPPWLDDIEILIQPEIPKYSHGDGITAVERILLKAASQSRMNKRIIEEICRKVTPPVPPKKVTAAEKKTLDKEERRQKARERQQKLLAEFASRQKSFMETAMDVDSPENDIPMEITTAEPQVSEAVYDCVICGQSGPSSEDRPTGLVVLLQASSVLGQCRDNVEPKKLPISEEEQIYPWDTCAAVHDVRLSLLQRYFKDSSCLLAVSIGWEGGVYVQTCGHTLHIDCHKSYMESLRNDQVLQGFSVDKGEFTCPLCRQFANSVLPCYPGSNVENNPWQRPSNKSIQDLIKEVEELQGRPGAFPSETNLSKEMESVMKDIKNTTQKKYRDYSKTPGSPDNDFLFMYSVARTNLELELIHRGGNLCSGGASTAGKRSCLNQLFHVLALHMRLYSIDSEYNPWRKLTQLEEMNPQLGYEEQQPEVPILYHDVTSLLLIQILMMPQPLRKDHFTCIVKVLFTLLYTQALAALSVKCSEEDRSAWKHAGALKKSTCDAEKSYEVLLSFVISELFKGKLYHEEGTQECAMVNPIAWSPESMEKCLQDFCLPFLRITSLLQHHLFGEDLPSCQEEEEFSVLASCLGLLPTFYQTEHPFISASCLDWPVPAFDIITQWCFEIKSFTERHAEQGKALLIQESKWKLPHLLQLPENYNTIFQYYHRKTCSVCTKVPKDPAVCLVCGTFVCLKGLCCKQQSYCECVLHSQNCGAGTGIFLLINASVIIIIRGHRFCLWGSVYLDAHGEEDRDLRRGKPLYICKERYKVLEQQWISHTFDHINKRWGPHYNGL
# UniProt O43396: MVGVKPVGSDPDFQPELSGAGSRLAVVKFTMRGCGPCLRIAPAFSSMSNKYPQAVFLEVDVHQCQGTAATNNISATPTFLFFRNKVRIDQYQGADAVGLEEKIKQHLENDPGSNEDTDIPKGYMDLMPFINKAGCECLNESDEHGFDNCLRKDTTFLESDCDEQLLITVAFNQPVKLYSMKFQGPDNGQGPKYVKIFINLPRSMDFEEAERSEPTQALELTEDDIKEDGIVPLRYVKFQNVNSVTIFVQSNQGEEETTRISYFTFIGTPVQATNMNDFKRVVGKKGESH
# UniProt O15042: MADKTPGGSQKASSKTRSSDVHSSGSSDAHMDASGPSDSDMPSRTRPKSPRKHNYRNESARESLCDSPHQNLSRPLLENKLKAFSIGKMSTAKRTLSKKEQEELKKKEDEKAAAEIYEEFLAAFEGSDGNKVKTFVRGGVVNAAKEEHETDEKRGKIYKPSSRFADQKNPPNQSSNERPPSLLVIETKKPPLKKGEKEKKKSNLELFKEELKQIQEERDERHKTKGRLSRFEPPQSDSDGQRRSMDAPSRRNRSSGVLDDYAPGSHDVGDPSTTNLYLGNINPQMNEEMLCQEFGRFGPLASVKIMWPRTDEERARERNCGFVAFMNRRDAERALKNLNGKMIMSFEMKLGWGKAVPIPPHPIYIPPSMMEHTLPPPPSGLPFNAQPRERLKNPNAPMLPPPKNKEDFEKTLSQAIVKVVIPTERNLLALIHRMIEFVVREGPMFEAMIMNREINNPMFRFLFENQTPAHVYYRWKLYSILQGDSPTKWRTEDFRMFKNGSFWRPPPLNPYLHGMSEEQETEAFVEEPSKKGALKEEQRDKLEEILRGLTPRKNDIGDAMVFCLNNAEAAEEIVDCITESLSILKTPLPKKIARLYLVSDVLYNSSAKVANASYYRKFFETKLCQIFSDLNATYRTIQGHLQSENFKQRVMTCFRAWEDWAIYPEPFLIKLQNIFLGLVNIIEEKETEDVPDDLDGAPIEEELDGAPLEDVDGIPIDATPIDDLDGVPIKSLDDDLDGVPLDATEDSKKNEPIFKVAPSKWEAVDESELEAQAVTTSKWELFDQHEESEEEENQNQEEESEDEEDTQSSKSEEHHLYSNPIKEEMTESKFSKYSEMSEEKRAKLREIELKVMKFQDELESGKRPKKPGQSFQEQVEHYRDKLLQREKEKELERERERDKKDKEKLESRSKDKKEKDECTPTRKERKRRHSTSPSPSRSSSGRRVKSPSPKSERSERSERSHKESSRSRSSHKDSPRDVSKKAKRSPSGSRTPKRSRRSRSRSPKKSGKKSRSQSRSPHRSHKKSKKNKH
# The list shows a part of the results.
# Compound: CC1Cc2ccccc2N1C(=O)C1CCCN(C1)C(=O)CCl (mixture of isomers) [TRIM25 ligand 11 (diastereomer mixture)]
# Test: probe-labelled cysteine peptide fold change vs DMSO (competition) (log2 fold change); higher = less target engagement (more negative = stronger competition)
# Details: THP-1, incubation time: 4 h
# 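Also: competitive chemoproteomic profiling in live THP-1 cells with an iodoacetamide desthiobiotin (IA-DTB) probe, comparing probe-labelled peptide intensities in compound-treated cells against DMSO-treated controls.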
Target,probe-labelled cysteine peptide fold change (10 µM),probe-labelled cysteine peptide fold change (50 µM)
U2AF2_P26368_464_YCDPDSYHRR (UniProt P26368),-0.205,-0.00812
TXNDC9_O14530_94_ESENVVCHFYR (UniProt O14530),-0.0365,-0.048
UBASH3B_Q8TF42_135_AHNIFPHITLCQFFMCEDSKVDALGEALQTTVSR (UniProt Q8TF42),0.145,0.126
TYK2_P29597_402_CLELSLPSR (UniProt P29597),0.176,0.126
UBA7_P41226_223_DGDLVTFSGIEGMVELNDCDPR (UniProt P41226),0.000986,0.0382
UBA7_P41226_68_NLVLMGVGSLTLHDPHPTCWSDLAAQFLLSEQDLER (UniProt P41226),0.093,0.0364
UBE2Z_Q9H832_243_NYNECIR (UniProt Q9H832),-0.049,-0.0648
UBR4_Q5T4S7_1033_TYINQLSMNSPEMSECDILHTLR (UniProt Q5T4S7),-0.0382,-0.152
TXNRD2_Q9NNW7_500_TVGIHPTCSEEVVK (UniProt Q9NNW7),0.204,0.0447
UBA1_P22314_748_CPHPLTFDVNNPLHLDYVMAAANLFAQTYGLTGSQDR (UniProt P22314),0.0693,-0.00354
UBE2F_Q969M7_64_LHCFQLTVTPDEGYYQGGK (UniProt Q969M7),0.0805,0.0875
UBA6_A0AVT1_311_CLIVDFSNPEAPLEIHTAMLALDQFQEK,0.173,-0.0627
UBR4_Q5T4S7_1962_LASAPVPFTVLSLTGNPCK (UniProt Q5T4S7),-0.0315,0.0173
TYK2_P29597_435_LTADSSHYLCHEVAPPR (UniProt P29597),0.156,0.13
TXNRD1_Q16881_339_EYCISSDDLFSLPYCPGK (UniProt Q16881),0.364,0.552
UBA6_A0AVT1_449_ACIGDTLCQK,-0.00098,0.131
UAP1L1_Q3KQV9_57_AAEACARPHGPPPDLAAR (UniProt Q3KQV9),-0.211,-0.0997
UBE4A_Q14139_490_ETCLIPAVQEPK (UniProt Q14139),0.0761,-0.16
UBE2G1_P62253_90_NGDVCISILHEPGEDK (UniProt P62253),0.0654,0.079
UBN1_Q9NPG3_837_ASPTQCHR (UniProt Q9NPG3),-0.14,-0.199

Target,probe-labelled cysteine peptide fold change (10 µM),probe-labelled cysteine peptide fold change (50 µM)
UBR2_Q8IWV8_99_LEQANKPSHLCGR (UniProt Q8IWV8),-0.0532,-0.102
UBR4_Q5T4S7_2688_IYMQMLLCPDPAVSFSCK (UniProt Q5T4S7),0.0361,0.0632
UBR3_Q6ZT12_1858_GKPLYICK (UniProt Q6ZT12),-0.0369,-0.0932
TXNL1_O43396_149_AGCECLNESDEHGFDNCLR (UniProt O43396),0.221,-0.182
UBE3C_Q15386_252_ILLENVLKPLHFTYNSCPEGAR (UniProt Q15386),0.0355,-0.385
UBASH3B_Q8TF42_240_LGCDWVATIFSR (UniProt Q8TF42),0.262,0.351
UBA3_Q8TBC4_28_MAVDGGCGDTGDWEGR (UniProt Q8TBC4),-0.144,-0.124
UBA6_A0AVT1_468+473_LQNLNIFLVGCGAIGCEMLK,0.0329,0.24
UBA1_P22314_278_VLGPYTFSICDTSNFSDYIR (UniProt P22314),-0.0898,0.00474
TXNDC5_Q8NBS9_350+353_FYAPWCGHCK (UniProt Q8NBS9),-0.0864,-0.251
UBR4_Q5T4S7_3864_ALSVLGCGHTSSTK (UniProt Q5T4S7),0.218,-0.151
UBE2O_Q9C0C9_230_CSMNTEDGAK (UniProt Q9C0C9),-0.0963,-0.168
U2SURP_O15042_320_NCGFVAFMNR (UniProt O15042),0.16,0.0271
UBN2_Q6ZU65_515_SGVYSHLEAFVPCNK (UniProt Q6ZU65),0.00214,-0.0846
UBAP2L_Q14157_68_NQDECVIALHDCNGDVNR (UniProt Q14157),0.146,0.0638
UBR2_Q8IWV8_127_DCAVDPTCVLCMECFLGSIHR (UniProt Q8IWV8),0.113,-0.112
UBR4_Q5T4S7_4430_VWCTTNEGEPMR (UniProt Q5T4S7),0.0122,-0.0424
UBASH3B_Q8TF42_474_CVQTAHNILK (UniProt Q8TF42),-0.00626,-0.0601
UBR3_Q6ZT12_288_DLTSGLGENACVK (UniProt Q6ZT12),-0.00485,-0.193

# Three entries from above, reformatted.
Target	probe-labelled cysteine peptide fold change (10 µM)	probe-labelled cysteine peptide fold change (50 µM)
UBR4_Q5T4S7_2688_IYMQMLLCPDPAVSFSCK (UniProt Q5T4S7)	0.0361	0.0632
UBR3_Q6ZT12_1858_GKPLYICK (UniProt Q6ZT12)	-0.0369	-0.0932
TXNL1_O43396_149_AGCECLNESDEHGFDNCLR (UniProt O43396)	0.221	-0.182
